The record followed here is PMC4442312 (eLife, 2015).

By UniProt entry, the sequences of proteins in these tests, tags left out.
UniProt Q96KQ7: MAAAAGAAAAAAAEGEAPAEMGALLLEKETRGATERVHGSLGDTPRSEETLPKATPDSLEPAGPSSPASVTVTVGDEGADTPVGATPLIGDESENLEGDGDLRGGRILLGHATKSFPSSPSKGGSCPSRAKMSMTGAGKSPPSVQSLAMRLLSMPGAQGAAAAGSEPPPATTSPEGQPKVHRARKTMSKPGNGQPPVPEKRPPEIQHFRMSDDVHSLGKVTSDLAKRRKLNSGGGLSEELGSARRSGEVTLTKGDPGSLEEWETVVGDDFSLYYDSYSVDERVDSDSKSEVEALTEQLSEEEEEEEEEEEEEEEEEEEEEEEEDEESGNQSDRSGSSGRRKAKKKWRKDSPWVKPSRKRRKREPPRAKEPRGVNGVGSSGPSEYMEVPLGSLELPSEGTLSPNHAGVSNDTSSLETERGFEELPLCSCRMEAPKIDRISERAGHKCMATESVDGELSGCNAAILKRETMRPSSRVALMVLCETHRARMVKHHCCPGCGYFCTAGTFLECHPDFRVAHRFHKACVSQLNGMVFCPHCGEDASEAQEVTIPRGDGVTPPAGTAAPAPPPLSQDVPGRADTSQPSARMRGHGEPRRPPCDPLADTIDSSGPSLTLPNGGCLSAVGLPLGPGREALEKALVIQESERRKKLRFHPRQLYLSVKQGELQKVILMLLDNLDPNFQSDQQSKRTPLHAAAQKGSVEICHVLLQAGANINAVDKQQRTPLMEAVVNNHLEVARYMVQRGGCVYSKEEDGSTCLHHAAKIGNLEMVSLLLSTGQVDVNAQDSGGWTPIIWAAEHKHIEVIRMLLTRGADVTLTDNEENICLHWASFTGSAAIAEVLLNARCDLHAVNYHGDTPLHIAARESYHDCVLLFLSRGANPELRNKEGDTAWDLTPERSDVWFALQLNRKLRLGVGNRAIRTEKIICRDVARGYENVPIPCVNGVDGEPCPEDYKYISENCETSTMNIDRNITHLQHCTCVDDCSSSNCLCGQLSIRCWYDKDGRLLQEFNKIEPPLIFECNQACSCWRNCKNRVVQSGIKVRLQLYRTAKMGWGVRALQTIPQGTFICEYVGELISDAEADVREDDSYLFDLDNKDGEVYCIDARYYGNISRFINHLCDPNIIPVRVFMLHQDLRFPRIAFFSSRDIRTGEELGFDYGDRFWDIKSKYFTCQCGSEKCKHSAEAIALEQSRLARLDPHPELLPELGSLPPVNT

Results are given in words; binding and its absence hold for the method and conditions named. In cells and extracts the contact can be indirect. Some results given as binding are weak or reduced against the parent protein; the word gives no strength. For some of these results: Where a sequence is shown, tags or fusion partners need not be part of it.

Assay [1] has as its target T1, T7-ORCA (270–647) (human) (UniProt Q9UFC0).
T1 sequence: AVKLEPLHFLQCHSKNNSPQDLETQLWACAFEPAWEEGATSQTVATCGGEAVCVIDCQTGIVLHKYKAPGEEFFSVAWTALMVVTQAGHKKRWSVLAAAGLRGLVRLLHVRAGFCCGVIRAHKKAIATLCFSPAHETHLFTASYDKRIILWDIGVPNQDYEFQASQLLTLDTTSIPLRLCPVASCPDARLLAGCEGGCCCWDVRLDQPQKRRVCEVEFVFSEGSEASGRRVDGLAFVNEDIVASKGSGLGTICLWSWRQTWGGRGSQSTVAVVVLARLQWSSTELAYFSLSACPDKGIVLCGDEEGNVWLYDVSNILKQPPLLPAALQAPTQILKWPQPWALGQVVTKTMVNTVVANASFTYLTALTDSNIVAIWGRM
Nature of the assay: co-IP; transient co-transfection in U2OS; IP buffer 50 mM Tris pH 7.4, 150 mM NaCl, 10% glycerol, 0.1% NP-40, 1 mM DTT; antibody-conjugated agarose (ORCA, T7 or HA antibody) overnight; immunoblot; for G9a-Suv39H1 also in control and ORCA siRNA cells.

The next assay has as its target T2, T7-ORCA (1–127) (human) (UniProt Q9UFC0).
T2 sequence: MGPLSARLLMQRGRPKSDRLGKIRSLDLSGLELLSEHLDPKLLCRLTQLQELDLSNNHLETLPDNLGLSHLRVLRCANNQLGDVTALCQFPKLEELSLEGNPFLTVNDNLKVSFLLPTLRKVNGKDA
The assay is described as above.

For assay [2], the target named is T3, T7-ORCA (128–647) (human) (UniProt Q9UFC0).
T3 sequence: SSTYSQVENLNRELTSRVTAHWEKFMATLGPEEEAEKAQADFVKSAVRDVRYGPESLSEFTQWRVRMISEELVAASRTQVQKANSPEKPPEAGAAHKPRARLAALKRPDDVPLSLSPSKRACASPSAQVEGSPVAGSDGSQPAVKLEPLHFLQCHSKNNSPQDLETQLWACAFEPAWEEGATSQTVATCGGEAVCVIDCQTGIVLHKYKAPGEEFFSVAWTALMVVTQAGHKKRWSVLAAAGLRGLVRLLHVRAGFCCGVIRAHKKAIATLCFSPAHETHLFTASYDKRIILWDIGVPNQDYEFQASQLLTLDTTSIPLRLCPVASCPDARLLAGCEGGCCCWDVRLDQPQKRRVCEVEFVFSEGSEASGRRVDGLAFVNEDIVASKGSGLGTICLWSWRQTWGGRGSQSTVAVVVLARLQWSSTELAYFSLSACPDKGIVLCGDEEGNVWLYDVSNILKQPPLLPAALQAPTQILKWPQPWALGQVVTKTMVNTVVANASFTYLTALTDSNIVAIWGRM
The assay is described as above.

The next assay deals with T4, T7-ORCA (1–270) (human) (UniProt Q9UFC0).
T4 sequence: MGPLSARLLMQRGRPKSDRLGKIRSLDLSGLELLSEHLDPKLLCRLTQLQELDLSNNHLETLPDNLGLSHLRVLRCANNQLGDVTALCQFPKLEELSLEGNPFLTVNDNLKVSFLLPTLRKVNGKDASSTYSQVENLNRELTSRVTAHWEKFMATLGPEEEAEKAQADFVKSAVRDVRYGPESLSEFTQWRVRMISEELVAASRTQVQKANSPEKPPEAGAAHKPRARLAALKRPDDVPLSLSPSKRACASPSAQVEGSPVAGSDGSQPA
Described as above.

Assay [3] concerns the target G9a, endogenous in U2OS (human (endogenous in U2OS)) (UniProt Q96KQ7). As to the kind of experiment: co-IP; endogenous proteins from U2OS cells; IP with ORCA antibody or G9a antibody, immunoblot; also in cells expressing HA-Suv39H1 or HA-G9a.
Assay [4] deals with HA-G9a (full length) (human) (UniProt Q96KQ7). As to the kind of experiment: co-IP; sequential IP from triply transfected U2OS: HA IP, HA peptide elution, then T7 antibody IP; immunoblot.
In a further assay the target is T5, HA-ORC1 (UniProt Q13415).
T5 sequence: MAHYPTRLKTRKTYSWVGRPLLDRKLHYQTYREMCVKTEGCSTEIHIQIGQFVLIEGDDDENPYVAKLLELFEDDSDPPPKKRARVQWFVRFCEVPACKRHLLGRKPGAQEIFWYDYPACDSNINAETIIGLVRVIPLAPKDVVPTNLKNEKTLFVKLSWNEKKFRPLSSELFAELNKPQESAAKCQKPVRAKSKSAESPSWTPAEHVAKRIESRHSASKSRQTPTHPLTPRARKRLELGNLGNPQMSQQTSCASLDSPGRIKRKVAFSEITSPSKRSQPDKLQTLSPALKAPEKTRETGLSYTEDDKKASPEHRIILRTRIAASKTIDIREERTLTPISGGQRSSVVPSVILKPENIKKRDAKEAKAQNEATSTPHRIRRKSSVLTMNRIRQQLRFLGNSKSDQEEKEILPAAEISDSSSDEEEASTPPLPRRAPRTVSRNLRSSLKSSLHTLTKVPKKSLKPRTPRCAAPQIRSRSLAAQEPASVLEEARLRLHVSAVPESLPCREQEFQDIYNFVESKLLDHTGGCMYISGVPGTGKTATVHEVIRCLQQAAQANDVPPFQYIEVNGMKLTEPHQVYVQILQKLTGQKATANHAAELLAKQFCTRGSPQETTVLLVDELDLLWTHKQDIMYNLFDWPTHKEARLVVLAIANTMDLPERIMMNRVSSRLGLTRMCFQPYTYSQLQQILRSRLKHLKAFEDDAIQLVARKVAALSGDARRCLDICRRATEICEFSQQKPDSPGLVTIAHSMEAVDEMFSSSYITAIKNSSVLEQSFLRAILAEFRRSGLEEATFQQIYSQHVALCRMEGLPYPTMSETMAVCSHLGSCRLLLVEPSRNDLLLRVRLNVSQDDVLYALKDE
The assay is described as above.

B1: HA-Suv39H1 (full length) (enzyme, UniProt O43463 1-412)
chain: MAENLKGCSVCCKSSWNQLQDLCRLAKLSCPALGISKRNLYDFEVEYLCDYKKIREQEYYLVKWRGYPDSESTWEPRQNLKCVRILKQFHKDLERELLRRHHRSKTPRHLDPSLANYLVQKAKQRRALRRWEQELNAKRSHLGRITVENEVDLDGPPRAFVYINEYRVGEGITLNQVAVGCECQDCLWAPTGGCCPGASLHKFAYNDQGQVRLRAGLPIYECNSRCRCGYDCPNRVVQKGIRYDLCIFRTDDGRGWGVRTLEKIRKNSFVMEYVGEIITSEEAERRGQIYDRQGATYLFDLDYVEDVYTVDAAYYGNISHFVNHSCDPNLQVYNVFIDNLDERLPRIAFFATRTIRAGEELTFDYNMQVDPVDMESTRMDSNFGLAGLPGSPKKRVRIECKCGTESCRKYLF
With B1, the binding result is listed as “binds” in assay [1], “no binding” with T7-ORCA (1–127) (human), “binds” in assay [2] and “no binding” with T7-ORCA (1–270) (human).

B2: origin recognition complex-associated protein (ORCA/LRWD1), endogenous in U2OS (protein, UniProt Q9UFC0 1-647)
chain: MGPLSARLLMQRGRPKSDRLGKIRSLDLSGLELLSEHLDPKLLCRLTQLQELDLSNNHLETLPDNLGLSHLRVLRCANNQLGDVTALCQFPKLEELSLEGNPFLTVNDNLKVSFLLPTLRKVNGKDASSTYSQVENLNRELTSRVTAHWEKFMATLGPEEEAEKAQADFVKSAVRDVRYGPESLSEFTQWRVRMISEELVAASRTQVQKANSPEKPPEAGAAHKPRARLAALKRPDDVPLSLSPSKRACASPSAQVEGSPVAGSDGSQPAVKLEPLHFLQCHSKNNSPQDLETQLWACAFEPAWEEGATSQTVATCGGEAVCVIDCQTGIVLHKYKAPGEEFFSVAWTALMVVTQAGHKKRWSVLAAAGLRGLVRLLHVRAGFCCGVIRAHKKAIATLCFSPAHETHLFTASYDKRIILWDIGVPNQDYEFQASQLLTLDTTSIPLRLCPVASCPDARLLAGCEGGCCCWDVRLDQPQKRRVCEVEFVFSEGSEASGRRVDGLAFVNEDIVASKGSGLGTICLWSWRQTWGGRGSQSTVAVVVLARLQWSSTELAYFSLSACPDKGIVLCGDEEGNVWLYDVSNILKQPPLLPAALQAPTQILKWPQPWALGQVVTKTMVNTVVANASFTYLTALTDSNIVAIWGRM
B2: the binding result in assay [3] is “binds”.

B3: T7-ORCA (full-length) (protein, UniProt Q9UFC0 1-647)
chain: MGPLSARLLMQRGRPKSDRLGKIRSLDLSGLELLSEHLDPKLLCRLTQLQELDLSNNHLETLPDNLGLSHLRVLRCANNQLGDVTALCQFPKLEELSLEGNPFLTVNDNLKVSFLLPTLRKVNGKDASSTYSQVENLNRELTSRVTAHWEKFMATLGPEEEAEKAQADFVKSAVRDVRYGPESLSEFTQWRVRMISEELVAASRTQVQKANSPEKPPEAGAAHKPRARLAALKRPDDVPLSLSPSKRACASPSAQVEGSPVAGSDGSQPAVKLEPLHFLQCHSKNNSPQDLETQLWACAFEPAWEEGATSQTVATCGGEAVCVIDCQTGIVLHKYKAPGEEFFSVAWTALMVVTQAGHKKRWSVLAAAGLRGLVRLLHVRAGFCCGVIRAHKKAIATLCFSPAHETHLFTASYDKRIILWDIGVPNQDYEFQASQLLTLDTTSIPLRLCPVASCPDARLLAGCEGGCCCWDVRLDQPQKRRVCEVEFVFSEGSEASGRRVDGLAFVNEDIVASKGSGLGTICLWSWRQTWGGRGSQSTVAVVVLARLQWSSTELAYFSLSACPDKGIVLCGDEEGNVWLYDVSNILKQPPLLPAALQAPTQILKWPQPWALGQVVTKTMVNTVVANASFTYLTALTDSNIVAIWGRM
Turning to B3, the binding entry (in assay [4]; with HA-ORC1) was “binds” throughout.
